Reference: publication PMC11571207 (Journal of Medicinal Chemistry, 2024)

Test: general procedure: Fmoc solid-phase peptide synthesis; Rink Amide AM resin
Conditions: whole synthesis

For “PEPTIDE1{V.D.K.P.P.Y.L.P.R.P.R.P.P.R.R.I.Y.N.R.[am]}$$$$V2.0”, the isolated mass (scale 357 mg, 0.29 mmol/g) was 111 mg and the isolated yield (scale 357 mg, 0.29 mmol/g) was 34%.
Work on “PEPTIDE1{V.D.K.P.P.Y.L.P.R.P.R.P.P.R.[dR].I.Y.N.[dR].[am]}$$$$V2.0” yielded an isolated mass (scale 300 mg, 0.25 mmol/g) of 18 mg and an isolated yield (scale 300 mg, 0.25 mmol/g) of 8%.
Work on “PEPTIDE1{V.D.K.P.P.Y.L.P.R.P.R.P.P.R.[dR].[dI].[dY].[dN].[dR].[am]}$$$$V2.0” yielded an isolated mass (scale 298 mg, 0.29 mmol/g) of 84 mg and an isolated yield (scale 298 mg, 0.29 mmol/g) of 31%.
Work on “PEPTIDE1{V.D.K.P.P.Y.L.P.R.P.R.[dP].P.R.R.I.Y.N.R.[am]}$$$$V2.0” yielded an isolated mass (scale 300 mg, 0.25 mmol/g) of 13 mg and an isolated yield (scale 300 mg, 0.25 mmol/g) of 6%.
With “PEPTIDE1{V.D.K.P.P.Y.L.P.R.P.R.[dP].[dP].[dR].[dR].[dI].[dY].[dN].[dR].[am]}$$$$V2.0” the isolated mass (scale 300 mg, 0.25 mmol/g) was 7.4 mg and the isolated yield (scale 300 mg, 0.25 mmol/g) was 3%.
In the case of “PEPTIDE1{V.D.K.P.P.Y.L.P.R.P.[dR].P.P.R.R.I.Y.N.R.[am]}$$$$V2.0”, the isolated mass (scale 300 mg, 0.25 mmol/g) is reported as 50.6 mg and the isolated yield (scale 300 mg, 0.25 mmol/g) is reported as 22%.
Substance “PEPTIDE1{V.D.K.P.P.Y.L.P.R.P.[dR].[dP].[dP].[dR].[dR].[dI].[dY].[dN].[dR].[am]}$$$$V2.0” has an isolated mass (scale 300 mg, 0.25 mmol/g) of 7.3 mg and an isolated yield (scale 300 mg, 0.25 mmol/g) of 3%.
With “PEPTIDE1{V.D.K.P.P.Y.L.P.R.[dP].R.P.P.R.R.I.Y.N.R.[am]}$$$$V2.0” the isolated mass (scale 300 mg, 0.25 mmol/g) was 40.7 mg and the isolated yield (scale 300 mg, 0.25 mmol/g) was 18%.
“PEPTIDE1{V.D.K.P.P.Y.L.P.[dR].P.R.P.P.R.R.I.Y.N.R.[am]}$$$$V2.0” showed an isolated mass (scale 300 mg, 0.29 mmol/g) of 7.6 mg and an isolated yield (scale 300 mg, 0.29 mmol/g) of 3%.
“PEPTIDE1{V.D.K.P.P.Y.L.[dP].R.P.R.P.P.R.R.I.Y.N.R.[am]}$$$$V2.0” gave an isolated mass (scale 305 mg, 0.29 mmol/g) of 99 mg and an isolated yield (scale 305 mg, 0.29 mmol/g) of 35%.
“PEPTIDE1{V.D.K.P.P.Y.[dL].P.R.P.R.P.P.R.R.I.Y.N.R.[am]}$$$$V2.0” gave an isolated mass (scale 326 mg, 0.29 mmol/g) of 110 mg and an isolated yield (scale 326 mg, 0.29 mmol/g) of 37%.
In the case of “PEPTIDE1{V.D.K.P.P.[dY].L.P.R.P.R.P.P.R.R.I.Y.N.R.[am]}$$$$V2.0”, the isolated mass (scale 329 mg, 0.29 mmol/g) is reported as 130 mg and the isolated yield (scale 329 mg, 0.29 mmol/g) is reported as 43%.
For “PEPTIDE1{V.D.K.P.[dP].Y.L.P.R.P.R.P.P.R.R.I.Y.N.R.[am]}$$$$V2.0”, the isolated mass (scale 315 mg, 0.29 mmol/g) was 98 mg and the isolated yield (scale 315 mg, 0.29 mmol/g) was 34%.
Work on “PEPTIDE1{V.D.K.[dP].P.Y.L.P.R.P.R.P.P.R.R.I.Y.N.R.[am]}$$$$V2.0” yielded an isolated mass (scale 310 mg, 0.29 mmol/g) of 120 mg and an isolated yield (scale 310 mg, 0.29 mmol/g) of 42%.
In the case of “PEPTIDE1{V.D.K.[dP].[dP].Y.L.P.R.P.R.P.P.R.R.I.Y.N.R.[am]}$$$$V2.0”, the isolated mass (scale 335 mg, 0.29 mmol/g) is reported as 104 mg and the isolated yield (scale 335 mg, 0.29 mmol/g) is reported as 34%.
In the case of “PEPTIDE1{[dV].[dD].[dK].[dP].[dP].[dY].[dL].[dP].[dR].[dP].[dR].[dP].[dP].[dR].[dR].[dI].[dY].[dN].[dR].[am]}$$$$V2.0”, the isolated mass (scale 348 mg, 0.29 mmol/g) is reported as 96 mg and the isolated yield (scale 348 mg, 0.29 mmol/g) is reported as 30%.
In the case of VDKPPYLPRPRPPROIYNO, the isolated mass (scale 305 mg, 0.29 mmol/g) is reported as 109 mg and the isolated yield (scale 305 mg, 0.29 mmol/g) is reported as 40%.

Plain letter strings leave the end groups untold. Strings that start with PEPTIDE1 are HELM notation: dots part the residues, brackets hold end groups and non-standard residues.
